Data: the supplement of paper PMC10849652
Some of the results follow.

The chains behind the UniProt entries cited, without tags or fusion partners. Where a name states a change or a piece, a line headed by the entry shows the natural chain unless it says otherwise.
UniProt Q9NV70: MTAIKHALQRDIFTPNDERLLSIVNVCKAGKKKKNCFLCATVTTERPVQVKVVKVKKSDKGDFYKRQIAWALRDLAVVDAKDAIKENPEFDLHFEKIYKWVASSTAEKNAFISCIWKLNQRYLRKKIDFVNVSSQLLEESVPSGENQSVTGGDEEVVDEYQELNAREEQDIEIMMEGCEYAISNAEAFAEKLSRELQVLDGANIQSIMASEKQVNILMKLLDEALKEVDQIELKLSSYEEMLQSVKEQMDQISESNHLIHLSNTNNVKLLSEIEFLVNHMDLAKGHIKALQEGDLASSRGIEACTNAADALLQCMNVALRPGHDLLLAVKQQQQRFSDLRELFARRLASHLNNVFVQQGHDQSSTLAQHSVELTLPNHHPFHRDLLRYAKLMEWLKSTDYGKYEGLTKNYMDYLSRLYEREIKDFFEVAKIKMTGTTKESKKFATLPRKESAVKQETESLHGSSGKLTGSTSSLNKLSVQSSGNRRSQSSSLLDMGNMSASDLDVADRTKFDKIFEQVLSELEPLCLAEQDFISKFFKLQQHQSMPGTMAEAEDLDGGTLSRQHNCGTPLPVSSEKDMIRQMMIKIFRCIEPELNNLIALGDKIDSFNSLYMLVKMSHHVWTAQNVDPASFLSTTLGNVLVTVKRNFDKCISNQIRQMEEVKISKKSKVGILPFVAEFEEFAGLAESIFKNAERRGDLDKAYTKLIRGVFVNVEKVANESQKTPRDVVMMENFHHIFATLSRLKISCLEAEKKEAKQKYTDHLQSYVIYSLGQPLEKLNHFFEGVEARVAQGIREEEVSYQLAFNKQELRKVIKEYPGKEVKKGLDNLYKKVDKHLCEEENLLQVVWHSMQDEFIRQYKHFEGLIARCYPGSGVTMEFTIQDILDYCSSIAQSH
UniProt Q5JUQ0: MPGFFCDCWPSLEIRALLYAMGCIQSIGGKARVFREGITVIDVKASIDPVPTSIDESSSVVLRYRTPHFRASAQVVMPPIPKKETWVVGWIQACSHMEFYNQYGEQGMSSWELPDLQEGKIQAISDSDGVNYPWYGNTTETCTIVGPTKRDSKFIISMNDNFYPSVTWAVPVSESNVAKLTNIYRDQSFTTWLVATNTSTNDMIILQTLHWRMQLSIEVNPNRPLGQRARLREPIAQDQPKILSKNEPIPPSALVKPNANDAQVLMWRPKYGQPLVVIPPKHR
UniProt Q06265, whole entry, looked up: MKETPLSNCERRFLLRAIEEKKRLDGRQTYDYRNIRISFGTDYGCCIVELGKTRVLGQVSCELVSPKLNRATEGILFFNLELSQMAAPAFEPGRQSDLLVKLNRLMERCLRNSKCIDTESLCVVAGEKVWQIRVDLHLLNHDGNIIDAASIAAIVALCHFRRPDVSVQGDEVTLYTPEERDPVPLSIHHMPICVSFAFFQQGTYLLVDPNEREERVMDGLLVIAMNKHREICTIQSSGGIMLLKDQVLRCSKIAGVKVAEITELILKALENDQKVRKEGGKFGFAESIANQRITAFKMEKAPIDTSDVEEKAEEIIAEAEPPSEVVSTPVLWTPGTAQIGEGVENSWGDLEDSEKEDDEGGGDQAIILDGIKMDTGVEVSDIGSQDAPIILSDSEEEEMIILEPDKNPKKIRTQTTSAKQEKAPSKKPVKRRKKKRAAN
UniProt Q9NPD3, whole entry, looked up: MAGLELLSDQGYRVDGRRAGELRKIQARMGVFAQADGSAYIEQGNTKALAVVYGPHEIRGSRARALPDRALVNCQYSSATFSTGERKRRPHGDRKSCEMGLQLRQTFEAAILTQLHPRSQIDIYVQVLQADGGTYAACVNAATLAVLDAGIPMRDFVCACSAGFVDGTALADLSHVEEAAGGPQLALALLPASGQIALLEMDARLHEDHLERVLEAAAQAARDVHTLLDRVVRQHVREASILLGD
UniProt Q99504: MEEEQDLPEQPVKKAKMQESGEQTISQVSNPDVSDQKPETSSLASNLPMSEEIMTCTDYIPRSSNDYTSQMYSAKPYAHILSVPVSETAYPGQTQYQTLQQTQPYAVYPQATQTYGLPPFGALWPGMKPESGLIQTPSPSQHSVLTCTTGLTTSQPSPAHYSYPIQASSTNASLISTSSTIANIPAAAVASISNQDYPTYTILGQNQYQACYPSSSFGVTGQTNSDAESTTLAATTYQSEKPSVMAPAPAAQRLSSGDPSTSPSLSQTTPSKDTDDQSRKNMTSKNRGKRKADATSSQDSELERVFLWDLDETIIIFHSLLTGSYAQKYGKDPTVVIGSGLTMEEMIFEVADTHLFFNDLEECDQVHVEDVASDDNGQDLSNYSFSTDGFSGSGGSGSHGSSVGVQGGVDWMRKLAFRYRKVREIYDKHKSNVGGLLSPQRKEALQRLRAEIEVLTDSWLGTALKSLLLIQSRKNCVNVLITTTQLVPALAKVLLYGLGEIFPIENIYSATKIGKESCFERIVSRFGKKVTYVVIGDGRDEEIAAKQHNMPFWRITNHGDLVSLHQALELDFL
UniProt Q9NRY5: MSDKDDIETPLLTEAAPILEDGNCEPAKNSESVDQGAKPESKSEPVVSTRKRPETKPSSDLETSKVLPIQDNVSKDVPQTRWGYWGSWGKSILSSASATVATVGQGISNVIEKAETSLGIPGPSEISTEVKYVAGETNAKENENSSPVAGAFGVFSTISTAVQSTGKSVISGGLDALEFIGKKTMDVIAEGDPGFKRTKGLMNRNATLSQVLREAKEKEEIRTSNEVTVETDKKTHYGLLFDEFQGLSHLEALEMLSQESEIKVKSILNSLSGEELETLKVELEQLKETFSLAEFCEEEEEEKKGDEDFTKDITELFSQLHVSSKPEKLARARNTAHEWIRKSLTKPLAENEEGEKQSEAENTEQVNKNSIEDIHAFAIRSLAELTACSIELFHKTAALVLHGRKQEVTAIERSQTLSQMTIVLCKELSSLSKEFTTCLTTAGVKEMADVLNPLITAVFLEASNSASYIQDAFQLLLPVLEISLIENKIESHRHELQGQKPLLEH
UniProt Q96DF8: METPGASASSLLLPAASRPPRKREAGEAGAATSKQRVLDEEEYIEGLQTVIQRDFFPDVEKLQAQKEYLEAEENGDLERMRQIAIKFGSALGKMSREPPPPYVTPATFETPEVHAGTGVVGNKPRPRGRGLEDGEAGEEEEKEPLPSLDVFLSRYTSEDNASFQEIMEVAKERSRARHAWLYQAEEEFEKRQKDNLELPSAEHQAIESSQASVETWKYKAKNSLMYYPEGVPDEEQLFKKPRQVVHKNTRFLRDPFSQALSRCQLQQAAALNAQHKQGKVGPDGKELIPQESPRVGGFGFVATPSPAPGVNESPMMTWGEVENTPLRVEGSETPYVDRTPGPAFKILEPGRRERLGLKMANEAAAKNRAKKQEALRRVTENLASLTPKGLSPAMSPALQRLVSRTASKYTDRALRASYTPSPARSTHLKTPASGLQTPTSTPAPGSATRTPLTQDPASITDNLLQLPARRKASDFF
UniProt P98173: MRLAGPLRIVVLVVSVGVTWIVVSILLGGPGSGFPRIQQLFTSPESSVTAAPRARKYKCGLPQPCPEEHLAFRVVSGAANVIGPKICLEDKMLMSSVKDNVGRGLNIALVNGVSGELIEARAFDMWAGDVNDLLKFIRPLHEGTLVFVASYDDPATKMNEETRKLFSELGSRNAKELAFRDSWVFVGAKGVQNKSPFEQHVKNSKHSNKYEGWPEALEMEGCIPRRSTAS
UniProt P16930: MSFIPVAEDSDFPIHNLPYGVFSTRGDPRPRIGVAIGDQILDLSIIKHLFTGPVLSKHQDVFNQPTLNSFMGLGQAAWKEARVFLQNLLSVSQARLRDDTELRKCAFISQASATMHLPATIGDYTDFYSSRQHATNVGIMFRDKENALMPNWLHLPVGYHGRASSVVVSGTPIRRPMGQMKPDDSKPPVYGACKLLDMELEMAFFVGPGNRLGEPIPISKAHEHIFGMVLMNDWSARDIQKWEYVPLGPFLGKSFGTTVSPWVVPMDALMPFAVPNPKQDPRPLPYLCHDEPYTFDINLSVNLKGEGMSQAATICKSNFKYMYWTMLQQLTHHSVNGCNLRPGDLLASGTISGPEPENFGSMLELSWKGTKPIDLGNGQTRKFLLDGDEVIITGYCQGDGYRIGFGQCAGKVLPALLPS
UniProt Q9NQT4, whole entry, looked up: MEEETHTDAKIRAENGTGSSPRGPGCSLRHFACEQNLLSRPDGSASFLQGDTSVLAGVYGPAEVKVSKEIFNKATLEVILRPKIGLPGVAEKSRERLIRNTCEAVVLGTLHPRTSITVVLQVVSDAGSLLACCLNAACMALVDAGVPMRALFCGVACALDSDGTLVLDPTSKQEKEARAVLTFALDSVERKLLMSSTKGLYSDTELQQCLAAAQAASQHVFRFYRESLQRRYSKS
UniProt Q9NZB2: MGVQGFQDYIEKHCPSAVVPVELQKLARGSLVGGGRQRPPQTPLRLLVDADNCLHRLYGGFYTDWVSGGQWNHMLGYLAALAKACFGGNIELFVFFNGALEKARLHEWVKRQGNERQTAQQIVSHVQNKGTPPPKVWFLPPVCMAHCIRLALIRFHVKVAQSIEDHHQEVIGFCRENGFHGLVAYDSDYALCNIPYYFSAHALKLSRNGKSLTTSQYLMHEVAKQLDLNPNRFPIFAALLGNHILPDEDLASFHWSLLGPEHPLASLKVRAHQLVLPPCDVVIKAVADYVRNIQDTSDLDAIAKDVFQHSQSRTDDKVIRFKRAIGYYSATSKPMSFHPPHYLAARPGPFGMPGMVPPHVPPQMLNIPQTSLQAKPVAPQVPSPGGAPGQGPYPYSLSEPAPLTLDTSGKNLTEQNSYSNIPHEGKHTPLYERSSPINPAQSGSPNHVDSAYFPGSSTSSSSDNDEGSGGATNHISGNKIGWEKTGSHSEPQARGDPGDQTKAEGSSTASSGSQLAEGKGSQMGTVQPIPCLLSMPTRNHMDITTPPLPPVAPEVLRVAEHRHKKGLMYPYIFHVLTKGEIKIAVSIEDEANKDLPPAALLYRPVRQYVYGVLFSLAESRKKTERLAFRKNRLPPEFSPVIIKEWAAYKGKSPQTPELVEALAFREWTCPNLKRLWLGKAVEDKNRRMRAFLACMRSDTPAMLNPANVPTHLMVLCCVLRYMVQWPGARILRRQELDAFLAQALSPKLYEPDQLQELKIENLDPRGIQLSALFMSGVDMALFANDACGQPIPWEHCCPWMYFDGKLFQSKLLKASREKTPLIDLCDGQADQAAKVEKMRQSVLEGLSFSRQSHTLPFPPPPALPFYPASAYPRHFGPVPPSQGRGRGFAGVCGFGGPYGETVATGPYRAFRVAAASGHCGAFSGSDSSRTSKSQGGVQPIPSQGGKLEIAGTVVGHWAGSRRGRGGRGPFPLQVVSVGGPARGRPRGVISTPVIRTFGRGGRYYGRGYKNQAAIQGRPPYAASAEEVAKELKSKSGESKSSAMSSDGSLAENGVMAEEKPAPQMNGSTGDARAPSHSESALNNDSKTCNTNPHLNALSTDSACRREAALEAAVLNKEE
UniProt Q8TAG9: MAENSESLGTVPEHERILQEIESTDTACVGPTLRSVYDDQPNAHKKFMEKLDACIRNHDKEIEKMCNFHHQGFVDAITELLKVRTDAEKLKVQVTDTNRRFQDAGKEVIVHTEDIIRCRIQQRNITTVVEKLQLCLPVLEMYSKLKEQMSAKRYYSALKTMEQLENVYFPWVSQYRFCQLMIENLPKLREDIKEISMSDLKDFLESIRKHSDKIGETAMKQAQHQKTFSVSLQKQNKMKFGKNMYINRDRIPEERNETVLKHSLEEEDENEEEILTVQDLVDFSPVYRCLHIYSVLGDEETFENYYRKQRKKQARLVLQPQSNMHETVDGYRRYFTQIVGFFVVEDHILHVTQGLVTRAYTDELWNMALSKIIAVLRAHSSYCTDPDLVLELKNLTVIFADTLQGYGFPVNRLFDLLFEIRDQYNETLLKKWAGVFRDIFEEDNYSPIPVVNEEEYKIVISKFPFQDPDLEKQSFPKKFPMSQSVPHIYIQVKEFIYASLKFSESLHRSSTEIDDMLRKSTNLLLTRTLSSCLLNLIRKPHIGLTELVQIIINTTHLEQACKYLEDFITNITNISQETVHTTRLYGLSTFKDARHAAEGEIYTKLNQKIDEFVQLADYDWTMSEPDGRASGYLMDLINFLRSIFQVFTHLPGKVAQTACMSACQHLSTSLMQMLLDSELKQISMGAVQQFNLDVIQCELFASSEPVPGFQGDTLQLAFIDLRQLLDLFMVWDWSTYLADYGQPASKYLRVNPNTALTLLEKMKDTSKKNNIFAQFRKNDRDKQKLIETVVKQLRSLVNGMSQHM

Assays:
Test in all cases: log2 fold change, soluble protein after heating vs DMSO (PISA); higher = thermal stabilisation; K562 lysate, 10 uM; active = over 0.2 and 3.5 SD of the protein, either way, in both replicates (recomputed)
[1] = compound: C#Cc1cccc(Nc2ncnc3cc(OCCOC)c(OCCOC)cc23)c1 [erlotinib]
In short: (§1)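 Soluble protein was defined as the supernatant remaining after 21,000xg for 90 min, following pooling of heated aliquots and adjustment to 0.5% NP-40 at 4°C. Before that, crude K562 extract at 1 mg/mL protein in PBS pH 7.4 with 1 mM MgCl2 was treated with 10 μM compound for 30 min and heated for 3 min across 48°C-58°C. Quantification used TMTpro 16plex LC-MS/MS with channel sums equalised, and values are log-two fold changes in thermal stability relative to solvent controls from duplicates.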

[2] = compound: C/C(=N\NC(=O)C1=CC(=CC=C1)S(=O)(=O)N2CCOCC2)/C3=C(C=CC(=C3)Cl)O
In short: as §1

[3] = compound: C1=CC(=CC=C1C2=NC3=C(N2)C=C(C=C3)C(=O)N)OC4=CC=C(C=C4)Cl
In short: as §1

[4] = compound: C1=CC2=C(C=CC(=C2)/C=C\3/C(=O)NC(=NCC4=CC=CS4)S3)N=C1
In short: as §1

[5] = compound: C1=CC2=NC=CN=C2C=C1/C=C/3\C(=O)NC(=O)S3
In short: as §1

[6] = compound: C1=CC=C(C=C1)C2=NC(=C(N2)C3=CC=NC=C3)C4=CC(=C(C=C4)Cl)O
In short: as §1

[7] = compound: C1=CC=C2C(=C1)C3=NNC4=CC=CC(=C43)C2=O
In short: as §1

[8] = compound: C1CCN(C1)C(=O)NC2=CC=CC(=C2)NC3=NC=C(C(=N3)NCCC4=CN=CN4)Br
In short: as §1

[9] = compound: C1CN(CCC1(CC2=CC=C(C=C2)Cl)N)C3=NC=NC4=C3C=CN4
In short: as §1

[10] = compound: C1COCCN1CCN2C3=CC=CC=C3N=C2NC(=O)C4=CC(=CC=C4)[N+](=O)[O-] [IRAK-1-4 Inhibitor I]
In short: as §1

[11] = compound: C=CC(=O)N1CCC[C@@H](n2nc(-c3ccc(Oc4ccccc4)cc3)c3c(N)ncnc32)C1 [ibrutinib]
In short: as §1

[12] = compound: CC(=O)c1cnc2ccc(-c3cc(Cl)c(O)c(Cl)c3)nc2c1N[C@H]1CC[C@H](CN(C)C)CC1
In short: as §1

[13] = compound: CC(C)(C)Cn1c(N)nc2ccc(-c3[nH]c(C(C)(C)C)nc3-c3ccc(F)cc3)nc21 [ralimetinib]
In short: as §1

[14] = compound: CC(C)(O)CC(=O)NCCn1ccc2ncnc(Nc3ccc(Oc4cccc(C(F)(F)F)c4)c(Cl)c3)c21
In short: as §1

[15] = compound: CC(C)C1=C2N=C(C=C(N2N=C1)NCC3=CC=CC=C3)NCCCCCCN
In short: as §1

[16] = compound: CC1=C(C(CC(=O)N1)C2=CC=C(C=C2)C(F)(F)F)C(=O)NC3=C(C=C4C(=C3)C=NN4)F
In short: as §1

[17] = compound: CC1=C(C2=C(C=C1)C(=O)C3=CC=CC=C3N2CCCN)C
In short: as §1

[18] = compound: CC1=C(C=C(C=C1)NC(=O)C2=CC(=CC=C2)C(C)(C)C#N)NC3=CC4=C(C=C3)N=CN(C4=O)C
In short: as §1

[19] = compound: CC1=C(C=C(C=C1)NC(=O)C2=CC(=CC=C2)N(C)C)NC(=O)C3=CC=C(C=C3)O
In short: as §1

[20] = compound: CC1=CC=C(C=C1)SC2=C3C=C(SC3=CN=C2)C(=O)N
In short: as §1

Measured: log2 fold change

EXOC1 (UniProt Q9NV70)
inactive: [1] 0.05 | [2] -0.005 | [3] -0.047 | [4] -0.009 | [5] 0.074 | [6] -0.035 | [7] -0.043 | [8] 0.014 | [9] -0.016 | [10] -0.011 | [11] -0.043 | [12] 0.012 | [13] 0.04 | [14] -0.004 | [15] -0.023 | [16] -0.022 | [17] 0.016 | [18] -0.026 | [19] 0.032 | [20] -0.011

FAAP100 (UniProt Q0VG06)
inactive: [1] -0.026 | [2] 0.234 | [3] 0.01 | [4] 0.048 | [5] 0.001 | [6] -0.006 | [7] -0.069 | [8] 0.08 | [9] 0.066 | [10] 0.07 | [11] 0.055 | [12] 0.005 | [13] 0 | [14] 0.077 | [15] -0.071 | [16] -0.043 | [17] -0.022 | [18] -0.028 | [19] 0.002 | [20] 0.008

FAM78A (UniProt Q5JUQ0)
inactive: [1] -0.137 | [2] -0.106 | [3] -0.066 | [4] 0.03 | [5] -0.023 | [6] 0.07 | [7] -0.039 | [8] -0.075 | [9] 0.02 | [10] 0.059 | [11] -0.035 | [12] -0.311 | [13] 0.111 | [14] -0.123 | [15] -0.056 | [16] 0.015 | [17] -0.05 | [18] -0.014 | [19] 0.013 | [20] 0.051

EXOSC9 (UniProt Q06265)
inactive: [1] -0.001 | [2] -0.019 | [3] 0.002 | [4] 0.006 | [5] 0.012 | [6] 0.017 | [7] -0.003 | [8] 0.009 | [9] 0 | [10] 0.006 | [11] 0.006 | [12] -0.011 | [13] -0.016 | [14] 0.001 | [15] -0.023 | [16] -0.031 | [17] -0.007 | [18] 0.063 | [19] -0.01 | [20] -0.001

EXOSC4 (UniProt Q9NPD3)
inactive: [1] -0.018 | [2] -0.032 | [3] -0.003 | [4] -0.006 | [5] 0.035 | [6] 0.021 | [7] 0 | [8] -0.015 | [9] 0.007 | [10] -0.007 | [11] -0.004 | [12] -0.009 | [13] 0.028 | [14] 0.004 | [15] -0.021 | [16] 0.004 | [17] -0.012 | [18] 0.008 | [19] 0.031 | [20] 0.005

EYA3 (UniProt Q99504)
inactive: [1] 0.034 | [2] -0.112 | [3] -0.014 | [4] -0.005 | [5] -0.04 | [6] -0.08 | [7] -0.048 | [8] -0.161 | [9] 0.06 | [10] 0.002 | [11] 0.037 | [12] -0.008 | [13] 0.059 | [14] -0.087 | [15] 0.003 | [16] 0.041 | [17] 0.072 | [18] 0.029 | [19] -0.006 | [20] -0.037

FAM114A2 (UniProt Q9NRY5)
inactive: [1] -0.039 | [2] -0.068 | [3] 0.141 | [4] -0.028 | [5] -0.1 | [6] -0.052 | [7] 0.02 | [8] -0.045 | [9] -0.104 | [10] -0.002 | [11] -0.016 | [12] -0.061 | [13] -0.036 | [14] -0.11 | [15] 0.057 | [16] 0.171 | [17] 0.06 | [18] -0.069 | [19] 0.005 | [20] 0.012

ESS2 (UniProt Q96DF8)
inactive: [1] 0.008 | [2] -0.044 | [3] 0.061 | [4] 0.024 | [5] -0.017 | [6] 0.024 | [7] -0.047 | [8] -0.051 | [9] -0.006 | [10] 0.014 | [11] -0.009 | [12] -0.012 | [13] -0.008 | [14] -0.015 | [15] -0.016 | [16] 0.048 | [17] -0.008 | [18] 0.124 | [19] -0.04 | [20] 0

FAM3A (UniProt P98173)
inactive: [1] -0.047 | [2] 0.024 | [3] 0.005 | [4] -0.009 | [5] 0.143 | [6] -0.048 | [7] -0.023 | [8] 0.021 | [9] -0.043 | [10] 0.055 | [11] 0.012 | [12] 0.052 | [13] -0.017 | [14] 0.009 | [15] 0.025 | [16] -0.078 | [17] 0.07 | [18] -0.05 | [19] -0.02 | [20] -0.076

Reprinted from the results shown (two entries):
FAM114A2 (UniProt Q9NRY5)
inactive: [1] -0.039 | [2] -0.068 | [3] 0.141 | [4] -0.028 | [5] -0.1 | [6] -0.052 | [7] 0.02 | [8] -0.045 | [9] -0.104 | [10] -0.002 | [11] -0.016 | [12] -0.061 | [13] -0.036 | [14] -0.11 | [15] 0.057 | [16] 0.171 | [17] 0.06 | [18] -0.069 | [19] 0.005 | [20] 0.012

ESS2 (UniProt Q96DF8)
inactive: [1] 0.008 | [2] -0.044 | [3] 0.061 | [4] 0.024 | [5] -0.017 | [6] 0.024 | [7] -0.047 | [8] -0.051 | [9] -0.006 | [10] 0.014 | [11] -0.009 | [12] -0.012 | [13] -0.008 | [14] -0.015 | [15] -0.016 | [16] 0.048 | [17] -0.008 | [18] 0.124 | [19] -0.04 | [20] 0

(list continues)

FAH (UniProt P16930)
inactive: [1] 0.002 | [2] -0.062 | [3] 0.06 | [4] -0.002 | [5] -0.003 | [6] 0.037 | [7] 0 | [8] -0.043 | [9] -0.013 | [10] -0.068 | [11] 0.035 | [12] 0.021 | [13] 0.054 | [14] -0.033 | [15] -0.021 | [16] -0.027 | [17] -0.038 | [18] -0.02 | [19] 0.012 | [20] -0.033

EXOSC5 (UniProt Q9NQT4)
inactive: [1] 0.034 | [2] -0.096 | [3] -0.001 | [4] -0.021 | [5] 0.022 | [6] -0.009 | [7] -0.018 | [8] 0.021 | [9] 0.007 | [10] -0.005 | [11] 0.036 | [12] -0.015 | [13] -0.059 | [14] 0.062 | [15] -0.021 | [16] 0.033 | [17] -0.034 | [18] -0.038 | [19] -0.019 | [20] 0.016

FAM3C (UniProt Q92520)
inactive: [1] -0.018 | [2] -0.039 | [3] -0.02 | [4] 0.055 | [5] -0.041 | [6] 0.015 | [7] -0.067 | [8] -0.018 | [9] 0.016 | [10] 0.008 | [11] 0.013 | [12] 0.001 | [13] 0.008 | [14] -0.026 | [15] 0.036 | [16] 0 | [17] 0.019 | [18] 0.008 | [19] -0.082 | [20] -0.019

FAM83A (UniProt Q86UY5)
inactive: [1] 0 | [2] 0.168 | [3] 0.097 | [4] 0.038 | [5] -0.054 | [6] -0.107 | [7] -0.031 | [8] -0.062 | [9] 0.008 | [10] 0.019 | [11] 0.125 | [12] 0.006 | [13] 0.008 | [14] 0.053 | [15] -0.06 | [16] 0.018 | [17] 0.023 | [18] 0.035 | [19] -0.023 | [20] 0.026

FAM120A isoform 6 (UniProt Q9NZB2)
inactive: [1] -0.011 | [2] -0.058 | [3] 0.026 | [4] 0.023 | [5] 0.009 | [6] 0.002 | [7] 0.002 | [8] -0.023 | [9] 0.017 | [10] 0.031 | [11] -0.023 | [12] -0.042 | [13] -0.001 | [14] -0.065 | [15] 0.026 | [16] -0.007 | [17] -0.037 | [18] -0.013 | [19] 0.03 | [20] 0.002

ERP29 (UniProt P30040)
inactive: [1] -0.021 | [2] 0.031 | [3] 0.008 | [4] 0.007 | [5] -0.004 | [6] 0.007 | [7] 0.042 | [8] 0.022 | [9] 0.023 | [10] -0.009 | [11] -0.001 | [12] 0.018 | [13] -0.031 | [14] 0.041 | [15] -0.008 | [16] -0.022 | [17] 0.027 | [18] -0.021 | [19] 0 | [20] 0.028

EXOC6 (UniProt Q8TAG9)
inactive: [1] 0 | [2] -0.045 | [3] -0.062 | [4] -0.058 | [5] -0.044 | [6] 0.005 | [7] -0.043 | [8] 0.018 | [9] 0.008 | [10] 0.013 | [11] 0 | [12] 0.072 | [13] 0.034 | [14] -0.018 | [15] -0.049 | [16] 0.048 | [17] 0.049 | [18] -0.022 | [19] 0.042 | [20] 0.01
